{"source": "PubChem BioAssay AID504834", "about": "(National Center for Advancing Translational Sciences (NCATS), 2011)", "note": "The campaign covered roughly 320,000 compounds. About 22,000 (6.9%) were called active. This list was built around the results that the source calls inconclusive (neither active nor inactive); the mix of calls is not that of the screen. Calls come from the whole dose curve; as a rule, active = well fitted inhibition curve with a large enough effect; inconclusive = small, poorly fitted or top-dose-only effect, or another doubt; inactive = no such curve, though single readings can be large or run the other way. Potencies beside an inconclusive call are fits to weak or partial responses and may not hold up. Potency is the fitted concentration of half-maximal effect."}
{"test": "Primary qHTS for delayed death inhibitors of the malarial parasite plastid, 96 hour incubation", "details": "P. falciparum luciferase reporter growth; series mostly up to 28.7 µM", "summary_of_the_method": "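96 h incubation, 37 C, 5% CO2, of luciferase-reporter P. falciparum-infected RBCs (2% hematocrit, 0.05% parasitemia final) with test compounds; endpoint luminescence.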"}
{"smiles": "Cn1nc(C(=O)Nc2ccc(S(=O)(=O)N3CCOCC3)cc2)c2ccccc2c1=O", "Potency": "inconclusive: 18.5 µM [inhibitor, single point]"}
{"smiles": "CSc1nncc(/C(C)=N\\Nc2ccccc2C)n1", "Potency": "inconclusive: 1.31 µM [inhibitor, full curve, poor fit]"}
{"smiles": "Cn1cc(-c2cccc(C(F)(F)F)c2)cc(C#N)c1=O", "Potency": "inactive"}
{"smiles": "COc1ccc(Cl)cc1NC(=O)Nc1ccccc1C(N)=O", "Potency": "inactive"}
{"smiles": "Cc1ccc(-c2nnc(SCC(=O)N/N=C/c3c(C)nn(-c4ccccc4)c3C)n2-c2ccc(C)cc2)cc1", "Potency": "inconclusive: 5.22 µM [inhibitor, partial curve]"}
{"smiles": "CC(=NCc1cccnc1)c1c(O)n(Cc2ccccc2)c(=O)[nH]c1=O", "Potency": "inconclusive: 18.5 µM [inhibitor, single point]"}
{"smiles": "CC(Sc1ccccn1)C(=O)Nc1ccc2c(c1)OCCO2", "note": "(stereo not given)", "Potency": "inactive"}
{"smiles": "COC(=O)c1nnn(-c2nonc2N)c1CSc1ccc(Cl)cc1", "Potency": "inconclusive: 18.5 µM [inhibitor, single point]"}
{"smiles": "NCC1CC2c3ccccc3C1c1ccccc12", "note": "(stereo not given)", "Potency": "inactive"}
{"smiles": "Cc1ccc(C)c(NC(=S)N(Cc2ccco2)C(C)c2cccs2)c1", "note": "(stereo not given)", "Potency": "inactive"}
{"smiles": "CC1(C)Cc2cccc(OCC(=O)N3CCN(S(=O)(=O)c4ccc(F)cc4)CC3)c2O1", "Potency": "active: 9.28 µM"}
{"smiles": "CCNC(=O)C(=O)NCc1ccncc1", "Potency": "inactive"}
{"smiles": "CN(CC(=O)NCc1ccccn1)S(=O)(=O)c1ccccc1", "Potency": "inactive"}
{"smiles": "CC1(c2ccc(C#N)cc2)NC(=O)N(CC(=O)Nc2cc(S(=O)(=O)N3CCOCC3)ccc2Cl)C1=O", "note": "(stereo not given)", "Potency": "inconclusive: 13.1 µM [inhibitor, single point]"}
{"smiles": "O=C(Nc1ccc2c(c1)OCO2)C1CCN(Cc2cc3c(cc2O)OCO3)CC1", "Potency": "inactive"}
{"smiles": "C=CCOc1ccc(C2C3=C(CCCC3=O)N(CC(=O)O)C3=C2C(=O)CCC3)cc1OCC", "Potency": "inactive"}
{"smiles": "CC(C)c1cc(N2CCN(C(=O)c3ccco3)CC2)n2c(nc3ccccc32)c1C#N", "Potency": "inconclusive: 2.08 µM [inhibitor, full curve, poor fit]"}
{"smiles": "O=C(/C=C/c1ccccc1)N/C(=C\\c1ccco1)C(=O)NCCO", "Potency": "inconclusive: 1.04 µM [inhibitor, partial curve]"}
{"smiles": "COc1cc(C(=O)NC2CC(C)(C)NC(C)(C)C2)cc(OC)c1OC", "Potency": "inconclusive: 18.5 µM [inhibitor, single point]"}
{"smiles": "COc1cc2c(C(=O)N3CCN(c4ccccc4)CC3)c(C)oc2cc1Br", "Potency": "inconclusive: 18.5 µM [inhibitor, single point]"}
{"smiles": "O=C(Nc1cccc(C(F)(F)F)c1)N(Cc1ccc(Cl)cc1)CC(O)C(F)(F)F", "note": "(stereo not given)", "Potency": "inconclusive: 6.57 µM [inhibitor, partial curve]"}
{"smiles": "O=[N+]([O-])c1cc([N+](=O)[O-])c(Oc2cc(Cl)cc(Cl)c2)cc1NN1CCCCC1", "Potency": "inactive"}
{"smiles": "CCOC(=O)c1c(NC(=S)Nc2ccccc2)sc2c1CCN(CCc1ccccc1)C2", "Potency": "active: 2.33 µM"}
{"smiles": "Cc1cc2c(cc(C(=O)N3CCC(C(=O)NC4CCCC4)CC3)n2Cc2c(F)cccc2Cl)o1", "Potency": "inactive"}
{"smiles": "CC(C)Cc1nnc(NC(=O)CSc2nc(O)c(Cc3ccccc3)c(=O)[nH]2)s1", "Potency": "inactive"}
{"smiles": "O=C(/C=C/c1cccs1)c1ccc(Br)cc1", "Potency": "inconclusive: 0.0294 µM [inhibitor, full curve, poor fit]"}
{"smiles": "COc1ccc2c(c1)CC1c3c(cc4c(c3-2)OCO4)CC[N+]1(C)[O-]", "note": "(stereo not given)", "Potency": "inconclusive: 13.1 µM [inhibitor, partial curve]"}
{"smiles": "Cc1ccc(N=Nc2c(N)[nH]n3c(=O)c4c(nc23)CCCC4)cc1", "Potency": "inconclusive: 8.28 µM [inhibitor, partial curve, poor fit]"}
{"smiles": "O=S(=O)(N/N=C\\c1ccc2c(c1)OCO2)c1ccc(Cl)cc1", "Potency": "inactive"}
{"smiles": "COc1ccc(C=C(C#N)C#N)c(CSc2ccccn2)c1", "Potency": "inconclusive: 1.65 µM [inhibitor, partial curve]"}
{"smiles": "COc1ccc(Cl)cc1NC(=O)CN(C)C(=O)C12CC3CC(CC(Cl)(C3)C1)C2", "Potency": "inconclusive: 13.1 µM [inhibitor, single point]"}
{"smiles": "Cc1ccc(CSCC(=O)N(C)CC(=O)Nc2ccccc2C(F)(F)F)cc1", "Potency": "inactive"}
{"smiles": "CCOc1ccc(C(C)=O)cc1Cn1nc(C(=O)O)c2ccccc2c1=O", "Potency": "inactive"}
{"smiles": "CCOC(=O)c1cc(-c2ccc(Cl)cc2)nc2c1c(C)nn2CCC#N", "Potency": "inconclusive: 8.28 µM [inhibitor, single point]"}
{"smiles": "COc1ccc(NC(=O)CN(C)C(=O)c2ccc(NS(=O)(=O)c3ccc4[nH]c(=O)[nH]c4c3)cc2)cc1", "Potency": "inconclusive: 18.5 µM [inhibitor, single point]"}
{"smiles": "COc1cccc(CN2CCN(CCCc3ccccc3)C(CCO)C2)c1OC", "note": "(stereo not given)", "Potency": "inconclusive: 9.28 µM [inhibitor, single point]"}
{"smiles": "C#CCOCCOCCOCCNc1nc(N2CCOCC2)nc(N2CCN(C(=O)[C@H](Cc3cc4ccccc4[nH]3)n3cc([C@@H](N)CC(C)C)nn3)CC2)n1", "Potency": "active: 4.15 µM"}
{"smiles": "Cn1cccc1C(=O)Nc1nccs1", "Potency": "inconclusive: 5.22 µM [inhibitor, partial curve, poor fit]"}
{"smiles": "CC(=O)c1ccc(NC(=O)CSc2ccc(-c3sc(C)nc3C)nn2)cc1", "Potency": "inconclusive: 9.28 µM [inhibitor, partial curve]"}
{"smiles": "CCOC(=O)CCc1c(C)nc2c(c(C)nn2-c2ccccc2)c1C", "Potency": "inconclusive: 5.22 µM [inhibitor, partial curve]"}
{"smiles": "C=C(C)Cn1c(C)cc(C)c(S(=O)(=O)c2ccccc2C)c1=O", "Potency": "inconclusive: 23.3 µM [inhibitor, partial curve, poor fit]"}
{"smiles": "O=C(c1cccs1)N1CCCC(N2CCN(c3cccc(C(F)(F)F)c3)CC2)C1", "note": "(stereo not given)", "Potency": "inactive"}
{"smiles": "CC(=O)NC(Cc1ccc(F)cc1)C(=O)NC1CCN(c2ncccc2[N+](=O)[O-])CC1", "note": "(stereo not given)", "Potency": "inactive"}
{"smiles": "CC(=O)NCCn1c(SCC(=O)NCCc2ccc(S(N)(=O)=O)cc2)nc2ccccc2c1=O", "Potency": "inactive"}
{"smiles": "CNc1oc(-c2ccc(Cl)cc2)nc1P(=O)(c1ccccc1)c1ccccc1", "Potency": "active: 14.7 µM"}
{"smiles": "CC(=O)NC(C)c1nc2ccccc2n1C(C)C", "note": "(stereo not given)", "Potency": "inconclusive: 18.5 µM [inhibitor, single point]"}
{"smiles": "C[C@H]1CN=C(Nc2ccccc2)N1CCC1CCCCC1", "Potency": "inconclusive: 16.5 µM [inhibitor, single point]"}
{"smiles": "Cc1cc(C)c(S(=O)(=O)Nc2nnc(C(C)C)s2)c(C)c1", "Potency": "inconclusive: 1.04 µM [inhibitor, partial curve, poor fit]"}
{"smiles": "Cc1cc(C)c2c(n1)nn1c(NCCCn3ccnc3)cc(C)nc21", "Potency": "inconclusive: 3.29 µM [inhibitor, full curve]"}
{"smiles": "O=c1c(-c2ccccc2)c(O)nc(SCCN2CCOCC2)n1-c1ccccc1", "Potency": "inactive"}
{"smiles": "CS(=O)(=O)N(CC(=O)NCC1CCCO1)c1cccc(Cl)c1", "note": "(stereo not given)", "Potency": "inactive"}
{"smiles": "COc1ccc(OC)c(N/C=C2/CCCCC2=O)c1", "Potency": "inactive"}
{"smiles": "O=C(CCn1c(=O)[nH]c2ccsc2c1=O)N1CCN(c2ccc([N+](=O)[O-])cc2)CC1", "Potency": "inconclusive: 18.5 µM [inhibitor, single point]"}
{"smiles": "Cc1cccc(-n2c(SCC(=O)N3CCCC3)nc3n[nH]c(C)c3c2=N)c1", "Potency": "inconclusive: 14.7 µM [inhibitor, partial curve, poor fit]"}
{"smiles": "COc1ccc(C(=O)N/C(N)=N/c2nc3ccccc3o2)cc1", "Potency": "inconclusive: 11.7 µM [inhibitor, partial curve]"}
{"smiles": "Clc1ccc(OCCSc2ncccn2)cc1", "Potency": "inconclusive: 13.1 µM [inhibitor, single point]"}
{"smiles": "CCOC(=O)c1cc(-c2ccc(/C=C3/C(=O)N(c4ccc(C(=O)O)cc4)N=C3C)o2)ccc1Cl", "Potency": "inconclusive: 2.33 µM [inhibitor, full curve, poor fit]"}
{"smiles": "O=C1CCN(CCc2ccccc2)CCN1CCSc1ccc(Br)cc1", "Potency": "inactive"}
{"smiles": "CCOC(=O)c1c(C)[nH]c(C=O)c1Cc1cccc(Cl)c1", "Potency": "inactive"}
{"smiles": "CCOC(=O)/C(=C/c1cn(C)c2ccccc12)NC(=O)c1ccccc1", "Potency": "inconclusive: 5.22 µM [inhibitor, partial curve, poor fit]"}
{"smiles": "CN(C)S(=O)(=O)c1ccc(C(=O)NCC(c2cccs2)N2CCOCC2)cc1", "note": "(stereo not given)", "Potency": "inconclusive: 0.0828 µM [inhibitor, full curve, poor fit]"}
{"smiles": "CCn1cc(CNC(=O)c2cc(Cl)ccc2OC)c(C)n1", "Potency": "inconclusive: 0.828 µM [inhibitor, full curve, poor fit]"}
{"smiles": "Cc1noc(C)c1CSc1nc2ccccc2c(=O)n1-c1ccc(Cl)cc1", "Potency": "inconclusive: 10.4 µM [inhibitor, partial curve, poor fit]"}
{"smiles": "CCOc1cc(/C=C\\c2[nH]c(=O)[nH]c(=O)c2[N+](=O)[O-])ccc1OC(C)CC", "note": "(stereo not given)", "Potency": "inconclusive: 14.7 µM [inhibitor, partial curve, poor fit]"}
{"smiles": "CC1(C)Oc2ccc(C(=O)N3CCCC3)cc2N(CC(=O)NCc2ccccc2)C1=O", "Potency": "inactive"}
{"smiles": "CCOC(=O)c1cnn(-c2ccccn2)c1N", "Potency": "inconclusive: 13.1 µM [inhibitor, partial curve]"}
{"smiles": "CC(C)(C)N/N=C1\\CC(c2ccccc2)Oc2ccccc21", "note": "(stereo not given)", "Potency": "inconclusive: 10.4 µM [inhibitor, single point]"}
{"smiles": "COC(=O)C1CCN(C(=O)COC(=O)C2CCN(S(=O)(=O)c3c(Cl)cccc3Cl)CC2)CC1", "Potency": "inconclusive: 18.5 µM [inhibitor, single point]"}
{"smiles": "COc1ccccc1CNC(=O)CCNC(=O)c1ccco1", "Potency": "inactive"}
{"smiles": "Cc1cc(C)c2sc(N(CCN(C)C)C(=O)CCS(=O)(=O)c3ccccc3)nc2c1", "Potency": "inconclusive: 0.0026 µM [inhibitor, full curve, poor fit]"}
